# According to the supplement of paper PMC3334620:
# Over roughly 33,000 sequences, “E-score (-0.5 to 0.5)” has its median near -0.015; the highest 2% begin near 0.3. The list shows a part of the results.
# Molecular target: T1, Abf1 (UniProt P14164)
# T1 sequence: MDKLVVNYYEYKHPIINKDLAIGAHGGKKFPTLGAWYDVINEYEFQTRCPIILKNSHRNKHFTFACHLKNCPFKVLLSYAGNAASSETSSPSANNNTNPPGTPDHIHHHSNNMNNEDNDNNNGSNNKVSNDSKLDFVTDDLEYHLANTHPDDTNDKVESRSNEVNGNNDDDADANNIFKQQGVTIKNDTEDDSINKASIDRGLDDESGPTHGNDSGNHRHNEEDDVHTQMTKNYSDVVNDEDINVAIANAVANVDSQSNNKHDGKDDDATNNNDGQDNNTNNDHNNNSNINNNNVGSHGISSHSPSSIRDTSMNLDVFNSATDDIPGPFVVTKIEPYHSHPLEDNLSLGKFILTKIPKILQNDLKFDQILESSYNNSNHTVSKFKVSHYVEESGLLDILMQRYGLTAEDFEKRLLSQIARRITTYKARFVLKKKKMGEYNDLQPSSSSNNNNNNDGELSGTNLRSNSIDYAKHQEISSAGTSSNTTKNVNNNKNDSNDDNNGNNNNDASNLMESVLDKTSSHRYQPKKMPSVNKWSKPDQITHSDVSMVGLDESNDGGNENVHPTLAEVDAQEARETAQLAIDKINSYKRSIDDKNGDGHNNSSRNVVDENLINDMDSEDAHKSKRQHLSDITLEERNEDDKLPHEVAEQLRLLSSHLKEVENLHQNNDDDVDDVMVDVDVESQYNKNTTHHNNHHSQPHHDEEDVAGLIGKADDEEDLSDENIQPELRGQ
# Test: PBM E-score (8-mer binding enrichment) (E-score (-0.5 to 0.5)); higher = stronger / more preferred TF binding
# Details: protein concentration: 200 nM; construct: GST-full length
# In short: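 Universal all-10-mer Agilent arrays, fresh or stripped once, were converted to double-stranded form by primer extension. GST-tagged yeast transcription factors from PURExpress in vitro transcription/translation, full-length or DNA-binding domain only, were applied at about 100-200 nM and detected with fluorescent anti-GST. After masliner normalisation, the Universal PBM Analysis Suite scored each ungapped eight-base word together with its reverse complement by E-score.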
row,Sequence,PBM E-score
1,CCAACACA,0.096
2,ATTGAAGC,-0.0707
3,AAGGTCTA,-0.112
4,CCTTAGCG,-0.104
5,GCCCAGAA,-0.225
6,CTAGTAGC,-0.0218
7,CCAGCGGC,-0.175
8,CTCATCTC,0.169
9,GCGCGCAC,0.074
10,CGGTGACG,0.235
11,TACTAATA,0.0826
12,GGCATGAC,0.219
13,ATAACTAT,0.0689
14,CGTGTGTA,0.092
15,AATGCGTG,-0.0749
16,AATCCGGA,-0.0986
17,CGCCTCAA,-0.137
18,CACTTTTA,0.107
19,AGTGAGTA,0.169
20,ACGCCGCC,-0.205
21,AACGCGAA,-0.0539
22,GTCGAGTA,-0.0255

row,Sequence,PBM E-score
1,GTTAGACA,0.249
2,GATAATCA,0.192
3,AATTGAAA,0.116
4,TGTAGTAA,0.126
5,CATCATTC,0.211
6,ATGTGAAG,0.164
7,ATTCTGAC,0.146
8,CCAGAATC,-0.0251
9,GCTCTAAC,-0.0444
10,CACTGAGG,-0.0917
11,GCAGCCAA,-0.0692
12,CATGGGGC,-0.336
13,CAGAAGTA,-0.0626
14,CTCGGCTC,-0.0525
15,AGGTAAGC,-0.251
16,TCAACCCA,-0.0217
17,ATGAGTGA,0.177
18,TCAAAAAA,0.145
19,AGTGATAG,0.303
20,TGCACGAA,0.368
21,TCAGTGGA,-0.163
22,CCAGCCGG,-0.236

row,Sequence,PBM E-score
1,ACAAACGA,0.191
2,ATCTGCAT,0.0571
3,ACTGTTAT,0.0955
4,AAGTAACT,0.196
5,CGAAATCA,0.226
6,CGAGAAGA,0.122
7,GCCTCACA,0.0334
8,ATCGACCG,-0.122
9,CGAGTTGC,-0.159
10,CTGGGCGA,-0.0445
11,AAGGCGAT,0.0786
12,ATCGCGAA,0.199
13,GCGAAAAC,-0.193
14,CATGGATA,-0.00259
15,AACACTTA,-0.206
16,AATAACGT,0.0535
17,ATAACAGG,-0.0349
18,CGGGAGTC,-0.0516
19,CGTTAACA,0.153
20,CTCGCTAC,0.0945
21,CCAAGGGG,-0.116
22,GATAGTGA,0.264

row,Sequence,PBM E-score
1,GAGCTAGC,-0.123
2,AAGATGAG,0.00927
3,AAGAGCAC,-0.116
4,CCACGCGA,0.018
5,GAGCCATA,0.148
6,AAACCATA,0.00947
7,CGTGTCGC,0.188
8,AGAAGCGA,0.0932
9,CAATCAGA,-0.159
10,CACACTGG,-0.166
11,ACAGTCAG,-0.0673
12,CACCAACC,-0.0713
13,ACAATTAA,0.0237
14,CTATACAG,-0.117
15,CGCACGAG,0.156
16,AGTTCTTA,0.107
17,ATATACCC,0.0559
18,ATGAGAAT,0.129
19,CGCGAGCG,-0.0571
20,AAGACACT,-0.1
